From the supplement of paper PMC10849652
The other results are listed elsewhere or left out.

The chains behind the UniProt entries cited, without tags or fusion partners. Where a name states a change or a piece, a line headed by the entry shows the natural chain unless it says otherwise.
UniProt Q96P16: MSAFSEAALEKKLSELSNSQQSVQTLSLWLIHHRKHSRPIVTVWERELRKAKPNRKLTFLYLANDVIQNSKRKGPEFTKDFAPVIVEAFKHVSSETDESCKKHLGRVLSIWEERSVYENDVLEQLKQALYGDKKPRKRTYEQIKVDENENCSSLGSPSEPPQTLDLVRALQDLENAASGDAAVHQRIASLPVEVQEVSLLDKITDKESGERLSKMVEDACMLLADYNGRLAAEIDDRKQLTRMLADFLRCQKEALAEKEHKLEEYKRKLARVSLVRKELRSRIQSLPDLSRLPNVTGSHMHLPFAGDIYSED
UniProt Q5VZM2, whole entry, looked up: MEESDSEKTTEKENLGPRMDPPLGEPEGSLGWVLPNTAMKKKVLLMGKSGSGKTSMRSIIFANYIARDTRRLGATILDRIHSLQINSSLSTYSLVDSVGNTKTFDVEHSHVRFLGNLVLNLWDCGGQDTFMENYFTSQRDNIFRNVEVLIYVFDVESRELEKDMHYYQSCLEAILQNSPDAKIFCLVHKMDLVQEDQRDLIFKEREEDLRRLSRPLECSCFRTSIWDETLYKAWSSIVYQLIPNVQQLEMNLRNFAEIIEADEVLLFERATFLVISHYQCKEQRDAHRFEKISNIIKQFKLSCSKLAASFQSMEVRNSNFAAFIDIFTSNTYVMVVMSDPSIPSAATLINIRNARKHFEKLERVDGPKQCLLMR
UniProt Q96CM3: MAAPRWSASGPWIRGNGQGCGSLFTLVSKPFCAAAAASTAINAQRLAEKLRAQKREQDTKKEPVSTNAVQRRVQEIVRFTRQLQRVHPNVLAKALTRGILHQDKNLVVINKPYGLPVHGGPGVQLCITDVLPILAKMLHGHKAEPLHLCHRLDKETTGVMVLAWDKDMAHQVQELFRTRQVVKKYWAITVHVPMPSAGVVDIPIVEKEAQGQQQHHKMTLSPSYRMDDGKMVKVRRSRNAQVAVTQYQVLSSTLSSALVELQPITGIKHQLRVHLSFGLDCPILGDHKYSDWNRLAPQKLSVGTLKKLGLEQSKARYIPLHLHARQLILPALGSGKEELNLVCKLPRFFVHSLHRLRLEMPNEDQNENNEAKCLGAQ
UniProt Q9GZN7, whole entry, looked up: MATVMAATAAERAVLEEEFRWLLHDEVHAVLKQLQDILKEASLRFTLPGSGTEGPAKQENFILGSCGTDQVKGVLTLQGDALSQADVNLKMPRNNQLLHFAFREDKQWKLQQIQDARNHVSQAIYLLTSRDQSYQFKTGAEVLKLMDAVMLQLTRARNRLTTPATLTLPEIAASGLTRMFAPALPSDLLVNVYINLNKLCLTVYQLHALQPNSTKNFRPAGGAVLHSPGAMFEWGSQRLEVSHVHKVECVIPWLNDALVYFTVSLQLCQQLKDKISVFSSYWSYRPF
UniProt Q8IXW5, whole entry, looked up: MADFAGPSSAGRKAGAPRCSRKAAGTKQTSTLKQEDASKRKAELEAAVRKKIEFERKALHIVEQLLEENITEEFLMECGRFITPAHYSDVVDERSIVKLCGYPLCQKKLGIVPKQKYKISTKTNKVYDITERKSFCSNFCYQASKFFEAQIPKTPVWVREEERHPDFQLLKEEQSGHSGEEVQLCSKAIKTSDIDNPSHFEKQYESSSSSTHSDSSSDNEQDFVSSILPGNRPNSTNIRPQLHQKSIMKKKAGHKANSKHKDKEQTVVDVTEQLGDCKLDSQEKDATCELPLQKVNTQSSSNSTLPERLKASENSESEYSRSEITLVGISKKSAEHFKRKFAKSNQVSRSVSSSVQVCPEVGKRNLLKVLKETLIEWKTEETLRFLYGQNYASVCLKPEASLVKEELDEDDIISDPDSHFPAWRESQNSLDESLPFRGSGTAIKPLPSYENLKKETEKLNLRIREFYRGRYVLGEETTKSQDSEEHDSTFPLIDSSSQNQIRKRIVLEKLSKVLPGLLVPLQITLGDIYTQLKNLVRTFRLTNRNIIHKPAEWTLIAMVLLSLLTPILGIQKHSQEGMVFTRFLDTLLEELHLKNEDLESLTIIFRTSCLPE
UniProt Q969K3: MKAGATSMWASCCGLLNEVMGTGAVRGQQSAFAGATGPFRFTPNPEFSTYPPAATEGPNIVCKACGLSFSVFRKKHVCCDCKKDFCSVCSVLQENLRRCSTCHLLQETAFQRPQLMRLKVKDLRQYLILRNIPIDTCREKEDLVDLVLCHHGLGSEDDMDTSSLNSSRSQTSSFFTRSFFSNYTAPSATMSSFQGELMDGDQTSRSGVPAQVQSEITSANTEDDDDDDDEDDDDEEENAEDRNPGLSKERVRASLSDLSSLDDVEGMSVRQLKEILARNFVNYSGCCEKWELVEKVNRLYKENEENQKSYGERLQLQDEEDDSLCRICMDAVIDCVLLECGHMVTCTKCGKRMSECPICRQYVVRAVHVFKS
UniProt Q9H7B2: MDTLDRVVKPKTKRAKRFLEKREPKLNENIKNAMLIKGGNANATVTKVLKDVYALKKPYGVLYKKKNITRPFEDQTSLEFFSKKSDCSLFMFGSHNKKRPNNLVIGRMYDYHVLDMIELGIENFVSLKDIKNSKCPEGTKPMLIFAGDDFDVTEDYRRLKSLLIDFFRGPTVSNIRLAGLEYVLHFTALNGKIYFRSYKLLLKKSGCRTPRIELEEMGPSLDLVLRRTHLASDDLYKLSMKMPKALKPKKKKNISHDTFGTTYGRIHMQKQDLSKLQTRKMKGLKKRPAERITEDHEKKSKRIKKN
UniProt Q9NYV6: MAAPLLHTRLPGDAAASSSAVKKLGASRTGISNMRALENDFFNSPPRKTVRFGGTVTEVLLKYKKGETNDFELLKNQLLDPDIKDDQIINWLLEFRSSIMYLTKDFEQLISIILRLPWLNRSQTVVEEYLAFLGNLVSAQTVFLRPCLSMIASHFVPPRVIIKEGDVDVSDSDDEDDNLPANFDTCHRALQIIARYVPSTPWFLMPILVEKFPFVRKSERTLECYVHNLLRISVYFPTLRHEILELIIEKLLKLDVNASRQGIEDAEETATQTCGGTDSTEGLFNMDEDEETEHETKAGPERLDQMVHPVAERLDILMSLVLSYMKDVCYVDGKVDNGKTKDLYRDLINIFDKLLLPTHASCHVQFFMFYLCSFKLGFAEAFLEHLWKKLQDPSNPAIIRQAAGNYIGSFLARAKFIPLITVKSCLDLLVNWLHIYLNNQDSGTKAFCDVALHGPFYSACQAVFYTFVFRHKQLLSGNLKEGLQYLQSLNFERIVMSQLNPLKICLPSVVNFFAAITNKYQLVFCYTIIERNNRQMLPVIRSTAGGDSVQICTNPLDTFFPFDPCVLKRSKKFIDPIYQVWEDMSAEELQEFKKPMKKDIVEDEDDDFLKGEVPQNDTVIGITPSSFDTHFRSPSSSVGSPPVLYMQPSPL
UniProt Q5VT52: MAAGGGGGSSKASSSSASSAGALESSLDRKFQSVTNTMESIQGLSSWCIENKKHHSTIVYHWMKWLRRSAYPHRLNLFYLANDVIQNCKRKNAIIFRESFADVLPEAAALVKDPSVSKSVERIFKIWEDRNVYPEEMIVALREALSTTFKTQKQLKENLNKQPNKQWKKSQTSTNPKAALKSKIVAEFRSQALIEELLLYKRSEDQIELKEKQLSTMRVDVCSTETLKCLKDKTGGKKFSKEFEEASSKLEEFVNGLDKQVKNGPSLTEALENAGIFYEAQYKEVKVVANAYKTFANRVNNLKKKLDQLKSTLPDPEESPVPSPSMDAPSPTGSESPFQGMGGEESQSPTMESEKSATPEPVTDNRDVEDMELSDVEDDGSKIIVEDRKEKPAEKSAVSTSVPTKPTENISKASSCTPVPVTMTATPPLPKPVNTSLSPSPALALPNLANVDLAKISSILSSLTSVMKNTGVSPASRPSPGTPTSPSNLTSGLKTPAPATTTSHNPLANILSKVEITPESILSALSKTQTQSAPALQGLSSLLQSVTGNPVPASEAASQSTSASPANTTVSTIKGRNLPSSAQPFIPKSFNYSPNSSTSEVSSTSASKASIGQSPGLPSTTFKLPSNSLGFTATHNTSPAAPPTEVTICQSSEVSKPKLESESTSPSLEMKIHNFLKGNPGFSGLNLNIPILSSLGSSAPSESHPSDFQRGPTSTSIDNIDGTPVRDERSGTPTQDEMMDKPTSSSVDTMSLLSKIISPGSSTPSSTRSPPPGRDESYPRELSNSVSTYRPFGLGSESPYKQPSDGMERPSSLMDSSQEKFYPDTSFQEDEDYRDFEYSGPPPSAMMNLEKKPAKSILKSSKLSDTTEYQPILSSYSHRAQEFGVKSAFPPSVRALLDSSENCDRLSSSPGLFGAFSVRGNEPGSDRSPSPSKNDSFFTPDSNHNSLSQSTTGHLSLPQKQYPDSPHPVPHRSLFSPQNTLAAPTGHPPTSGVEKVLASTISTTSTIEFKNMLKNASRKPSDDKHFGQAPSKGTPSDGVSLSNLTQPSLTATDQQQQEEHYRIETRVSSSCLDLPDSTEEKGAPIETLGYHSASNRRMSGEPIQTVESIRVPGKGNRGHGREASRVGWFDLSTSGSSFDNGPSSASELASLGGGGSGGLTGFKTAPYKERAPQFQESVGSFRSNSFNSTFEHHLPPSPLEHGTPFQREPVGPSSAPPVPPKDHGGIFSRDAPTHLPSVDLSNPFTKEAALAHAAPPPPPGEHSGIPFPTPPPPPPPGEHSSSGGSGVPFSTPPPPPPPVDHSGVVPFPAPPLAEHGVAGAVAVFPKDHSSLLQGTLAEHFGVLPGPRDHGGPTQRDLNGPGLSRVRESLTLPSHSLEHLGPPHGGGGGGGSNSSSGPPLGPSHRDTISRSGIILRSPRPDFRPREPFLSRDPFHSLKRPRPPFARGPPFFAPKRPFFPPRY
UniProt Q15349, whole entry, looked up: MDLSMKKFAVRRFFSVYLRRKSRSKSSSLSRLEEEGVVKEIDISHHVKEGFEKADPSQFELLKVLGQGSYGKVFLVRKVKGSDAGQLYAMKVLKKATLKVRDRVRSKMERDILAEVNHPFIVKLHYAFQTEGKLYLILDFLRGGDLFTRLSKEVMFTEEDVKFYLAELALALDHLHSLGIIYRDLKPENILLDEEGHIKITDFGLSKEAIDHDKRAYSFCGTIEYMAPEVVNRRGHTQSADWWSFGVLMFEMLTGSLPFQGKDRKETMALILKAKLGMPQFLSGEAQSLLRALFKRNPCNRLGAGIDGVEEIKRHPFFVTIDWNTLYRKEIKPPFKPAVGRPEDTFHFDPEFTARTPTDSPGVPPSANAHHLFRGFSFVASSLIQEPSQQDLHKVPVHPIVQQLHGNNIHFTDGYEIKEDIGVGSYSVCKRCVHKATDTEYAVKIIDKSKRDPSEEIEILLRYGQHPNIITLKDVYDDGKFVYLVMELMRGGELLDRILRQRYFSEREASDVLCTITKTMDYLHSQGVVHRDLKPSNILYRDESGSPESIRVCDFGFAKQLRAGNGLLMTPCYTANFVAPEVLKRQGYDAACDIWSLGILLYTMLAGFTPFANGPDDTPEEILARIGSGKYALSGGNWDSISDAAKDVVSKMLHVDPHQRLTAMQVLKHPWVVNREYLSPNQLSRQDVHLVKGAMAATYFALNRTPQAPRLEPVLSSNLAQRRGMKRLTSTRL
UniProt P56182: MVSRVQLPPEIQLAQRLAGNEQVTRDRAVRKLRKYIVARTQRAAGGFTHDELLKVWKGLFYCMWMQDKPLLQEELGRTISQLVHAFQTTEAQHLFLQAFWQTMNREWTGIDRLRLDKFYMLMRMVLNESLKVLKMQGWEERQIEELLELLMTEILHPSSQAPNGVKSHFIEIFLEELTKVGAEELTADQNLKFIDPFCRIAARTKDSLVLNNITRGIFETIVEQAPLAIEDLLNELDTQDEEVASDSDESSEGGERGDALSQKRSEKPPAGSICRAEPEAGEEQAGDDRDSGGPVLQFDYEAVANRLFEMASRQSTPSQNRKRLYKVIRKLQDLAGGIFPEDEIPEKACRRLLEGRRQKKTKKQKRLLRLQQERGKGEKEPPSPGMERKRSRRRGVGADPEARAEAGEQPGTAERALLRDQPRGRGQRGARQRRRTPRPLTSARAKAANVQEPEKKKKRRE
UniProt Q5M7Z0: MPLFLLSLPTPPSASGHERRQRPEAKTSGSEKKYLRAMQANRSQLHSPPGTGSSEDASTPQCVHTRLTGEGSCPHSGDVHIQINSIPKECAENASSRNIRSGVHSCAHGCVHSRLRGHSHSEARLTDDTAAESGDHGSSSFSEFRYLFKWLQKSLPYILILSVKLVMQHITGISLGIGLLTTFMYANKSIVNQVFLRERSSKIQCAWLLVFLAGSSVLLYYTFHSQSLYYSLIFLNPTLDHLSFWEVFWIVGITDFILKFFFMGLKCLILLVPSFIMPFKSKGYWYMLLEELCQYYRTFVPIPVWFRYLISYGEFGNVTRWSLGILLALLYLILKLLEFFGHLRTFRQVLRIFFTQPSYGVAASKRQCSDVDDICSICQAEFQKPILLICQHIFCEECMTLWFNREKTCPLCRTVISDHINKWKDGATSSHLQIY
UniProt P78317: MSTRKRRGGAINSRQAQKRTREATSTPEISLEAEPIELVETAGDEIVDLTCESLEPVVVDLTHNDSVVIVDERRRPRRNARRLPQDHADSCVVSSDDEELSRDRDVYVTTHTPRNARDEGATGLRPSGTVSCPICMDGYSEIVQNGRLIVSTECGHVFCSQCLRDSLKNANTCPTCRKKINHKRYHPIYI

Columns and labels:
Assay in all cases: log2 fold change, soluble protein after heating vs DMSO (PISA); higher = thermal stabilisation; K562 cells, 10 uM, 30 min; active = over 0.2 and 3.5 SD of the protein, either way, in both replicates (recomputed)
saracatinib = compound: CN1CCN(CCOc2cc(OC3CCOCC3)c3c(Nc4c(Cl)ccc5c4OCO5)ncnc3c2)CC1 [saracatinib]
In short: (§1)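 K562 cells at 2×10^6 cells/mL were treated with 10 μM compound for 30 min. Aliquots were heated for 3 min across 48°C-58°C, pooled, and extracted in PBS with 0.5% NP-40 at 4°C; soluble protein was the supernatant after 21,000xg for 90 min. Soluble protein was quantified by TMTpro 16plex LC-MS/MS with channel sums equalised, and reported as log2 fold change in thermal stability against DMSO controls, with values from duplicates.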

sotrastaurin = compound: CN1CCN(c2nc(C3=C(c4c[nH]c5ccccc45)C(=O)NC3=O)c3ccccc3n2)CC1 [sotrastaurin]
In short: as §1

Tubastatin A = compound: CN1CCc2c(c3ccccc3n2Cc2ccc(C(=O)NO)cc2)C1 [Tubastatin A]
In short: as §1

[1] = compound: CNC(=O)C1=CC=CC=C1NC2=NC(=NC=C2Cl)NC3=C(C=C(C=C3)N4CCOCC4)OC
In short: as §1

defactinib = compound: CNC(=O)c1ccc(Nc2ncc(C(F)(F)F)c(NCc3nccnc3N(C)S(C)(=O)=O)n2)cc1 [defactinib]
In short: as §1

[2] = compound: CNc1nc(-c2ccc3c(N)n[nH]c3c2)cc(N2C[C@@H](C(=O)NC3CCCCC3)CC[C@H]2C)n1
In short: as §1

[3] = compound: COC(=O)[C@H](CCSC)NC(=O)C1=C(C=C(C=C1)NC[C@H](CS)N)C2=CC=CC=C2
In short: as §1

rucaparib = compound: CNCc1ccc(-c2[nH]c3cc(F)cc4c3c2CCNC4=O)cc1 [rucaparib]
In short: as §1

encorafenib = compound: COC(=O)N[C@@H](C)CNc1nccc(-c2cn(C(C)C)nc2-c2cc(Cl)cc(NS(C)(=O)=O)c2F)n1 [encorafenib]
In short: as §1

alvocidib = compound: CN1CC[C@H](c2c(O)cc(O)c3c(=O)cc(-c4ccccc4Cl)oc23)[C@H](O)C1 [alvocidib]
In short: as §1

Measured: log2 fold change

RPRD1A (UniProt Q96P16)
inactive: saracatinib -0.259 | sotrastaurin 0.058 | Tubastatin A 0.106 | [1] -0.101 | defactinib -0.179 | [2] -0.054 | [3] 0.043

ROR2 (UniProt Q01974)
inactive: saracatinib 0.034 | sotrastaurin -0.071 | Tubastatin A -0.025 | [1] -0.023 | defactinib -0.107 | rucaparib -0.012 | [2] 0.084 | encorafenib 0.03 | [3] -0.121

ROMO1 (UniProt P60602)
inactive: saracatinib 0.022 | sotrastaurin -0.091 | Tubastatin A 0.048 | [1] 0.013 | rucaparib -0.038 | [2] -0.012 | encorafenib 0.026

ROS1 (UniProt P08922)
inactive: sotrastaurin 0.13 | alvocidib 0.048 | [1] -0.154 | rucaparib -0.208 | encorafenib 0.018

RRAGB (UniProt Q5VZM2)
inactive: saracatinib 0.076 | sotrastaurin 0.028 | Tubastatin A -0.03 | [1] -0.01 | defactinib -0.075 | rucaparib -0.009 | [2] -0.009 | encorafenib 0.06 | [3] 0.084

2 records picked at random from the list so far:
RPRD1A (UniProt Q96P16)
inactive: saracatinib -0.259 | sotrastaurin 0.058 | Tubastatin A 0.106 | [1] -0.101 | defactinib -0.179 | [2] -0.054 | [3] 0.043

ROR2 (UniProt Q01974)
inactive: saracatinib 0.034 | sotrastaurin -0.071 | Tubastatin A -0.025 | [1] -0.023 | defactinib -0.107 | rucaparib -0.012 | [2] 0.084 | encorafenib 0.03 | [3] -0.121

More records follow:

RPUSD4 (UniProt Q96CM3)
inactive: sotrastaurin -0.037 | alvocidib -0.043 | Tubastatin A 0.081

ROGDI (UniProt Q9GZN7)
inactive: alvocidib 0.061 | rucaparib 0.183 | encorafenib 0.05

RPS7, A0A2R8Y623
inactive: sotrastaurin 0.374 | Tubastatin A 0.136 | [1] -0.214 | defactinib -0.162 | rucaparib -0.098 | encorafenib -0.421 | [3] -0.294

RPS6KA5 (UniProt O75582)
inactive: [1] 0.083 | rucaparib 0.135 | encorafenib 0.148

RPL10 (UniProt F8W7C6)
inactive: sotrastaurin -0.016 | alvocidib 0.324 | Tubastatin A 0.106 | [1] 0.024 | defactinib 0.242 | rucaparib 0.092 | encorafenib 0.136 | [3] -0.001

RPS3A (UniProt D6R9B6)
inactive: saracatinib -0.125 | sotrastaurin 0.202 | Tubastatin A 0.051 | [2] -0.086

RPL38 (UniProt P63173)
inactive: saracatinib -0.018 | sotrastaurin 0.01 | Tubastatin A 0.014 | [1] 0.027 | defactinib 0.126 | rucaparib 0.093 | [2] 0.044 | encorafenib 0.003 | [3] 0.037

RPS19 (UniProt M0R2L9)
inactive: Tubastatin A -0.186

RNF5 (UniProt Q99942)
inactive: sotrastaurin -0.115 | alvocidib -0.019 | Tubastatin A -0.163 | [1] -0.036 | defactinib -0.007 | rucaparib 0.006 | encorafenib 0.053 | [3] 0.012

RPP30 (UniProt Q5VU11)
inactive: saracatinib -0.308 | [1] -0.241 | [2] 0.016

RPAP2 (UniProt Q8IXW5)
inactive: sotrastaurin 0.017 | alvocidib -0.396 | Tubastatin A 0.024 | [1] -0.025

RPAIN isoform 8 (UniProt Q86UA6)
inactive: saracatinib -0.036 | sotrastaurin -0.09 | Tubastatin A -0.016 | defactinib -0.231 | [2] -0.082 | [3] 0.094

RPS4X (UniProt P62701)
inactive: saracatinib -0.164 | sotrastaurin -0.017 | Tubastatin A 0.123 | [1] 0.063 | defactinib 0.302 | rucaparib 0.185 | [2] 0.089 | encorafenib 0.08 | [3] 0.014

RNF34 isoform 2 (UniProt Q969K3)
inactive: saracatinib -0.048 | alvocidib -0.061 | Tubastatin A 0.143 | [1] -0.033 | defactinib -0.084 | rucaparib 0.065 | [2] 0.1 | encorafenib -0.064 | [3] 0.067

RPS15 (UniProt P62841)
inactive: saracatinib -0.02 | sotrastaurin 0.07 | Tubastatin A 0.087 | [1] 0.04 | defactinib 0.233 | rucaparib 0.226 | [2] 0.061 | encorafenib 0.028 | [3] 0.06

RPF2 (UniProt Q9H7B2)
inactive: [1] -0.167

RPGR (UniProt Q92834)
inactive: Tubastatin A -0.115

RPL22L1 (UniProt Q6P5R6)
inactive: sotrastaurin -0.016 | [1] 0.044 | rucaparib 0.084 | encorafenib -0.406

RPA3 (UniProt P35244)
inactive: saracatinib 0.015 | sotrastaurin -0.014 | Tubastatin A 0.022 | [1] 0.181 | defactinib -0.054 | rucaparib -0.048 | [2] 0.015 | encorafenib 0.06 | [3] 0.014

RPE (UniProt Q96AT9)
inactive: saracatinib 0.029 | alvocidib 0.07 | Tubastatin A 0.01 | [1] 0.022 | defactinib -0.099 | rucaparib 0.005 | [2] -0.053 | encorafenib -0.012 | [3] -0.052

RRN3 (UniProt Q9NYV6)
inactive: [1] -0.158 | rucaparib 0.144 | encorafenib -0.004

RPL7L1 (UniProt Q6DKI1)
inactive: saracatinib 0.028 | defactinib 0.242 | rucaparib 0.403 | [2] 0.031 | encorafenib 0.135 | [3] -0.087

RPRD2 (UniProt Q5VT52)
inactive: Tubastatin A 0.252 | [1] 0.062 | defactinib -0.14 | [3] -0.142

RPS6KA2 isoform 2 (UniProt Q15349)
active: [1] -0.422
inactive: saracatinib 0 | sotrastaurin -0.049 | Tubastatin A -0.01 | defactinib -0.209 | rucaparib -0.049 | [2] -0.08 | encorafenib 0.014 | [3] -0.009

RPLP0 (UniProt F8VWV4)
inactive: sotrastaurin 0.177 | alvocidib 0.15 | Tubastatin A 0.101

RNF41 (UniProt Q9H4P4)
inactive: rucaparib -0.087 | encorafenib -0.016

RPS6KB2 (UniProt Q9UBS0)
inactive: alvocidib -0.223 | Tubastatin A -0.199 | [1] 0.165

RPS6KA3 (UniProt P51812)
inactive: saracatinib 0.021 | sotrastaurin -0.049 | Tubastatin A 0.019 | defactinib -0.148 | rucaparib 0.006 | [2] -0.049 | encorafenib -0.01 | [3] -0.027

RNF31 (UniProt Q96EP0)
inactive: sotrastaurin -0.303 | Tubastatin A -0.22 | [1] -0.015 | defactinib -0.027 | [3] -0.036

RRP1 (UniProt P56182)
inactive: [1] -0.085 | defactinib 0.053 | [3] -0.038

RNFT1 (UniProt Q5M7Z0)
inactive: [1] -0.039

RPS3 (UniProt E9PJN9)
inactive: saracatinib -0.069 | Tubastatin A 0.105 | rucaparib 0.064 | [2] -0.028 | encorafenib 0.052

RNF26 (UniProt Q9BY78)
inactive: defactinib 0.119 | [3] 0.292

RNF4 (UniProt P78317)
inactive: sotrastaurin -0.091 | Tubastatin A 0.05 | [1] -0.09
